{"source": "paper PMC10850816", "binders": {"B1": {"name": "FERM-JAK2, in vitro translated (protein, UniProt O60674 1-77; O60674 814-1132)", "chain": "MGMACLTMTEMEGTSTSSIYQNGDISGNANSMKQIDPVLQVYLYHSLGKSEADYLTFPSGEYVAEEICIAASKACGIELLTENDMLPNMRIGALGFSGAFEDRDPTQFEERHLKFLQQLGKGNFGSVEMCRYDPLQDNTGEVVAVKKLQHSTEEHLRDFEREIEILKSLQHDNIVKYKGVCYSAGRRNLKLIMEYLPYGSLRDYLQKHKERIDHIKLLQYTSQICKGMEYLGTKRYIHRDLATRNILVENENRVKIGDFGLTKVLPQDKEYYKVKEPGESPIFWYAPESLTESKFSVASDVWSFGVVLYELFTYIEKSKSPPAEFMRMIGNDKQGQMIVFHLIELLKNNGRLPRPDGCPDEIYMIMTECWNNNVNQRPSFRDLALRVDQIRDNMAG"}}, "target": "purified STAT5 protein", "experiment": "pull-down; purified STAT5 incubated with in vitro translated FERM-JAK2 or JAK2-V617F for 3 h; beads washed; bound JAK2 detected by anti-JAK2 immunoblot (Fig. 3C); only the target purified", "note": "No constants are given. Whether binding was seen depends on the method and setting. Binding seen in cells or lysates may run through a third protein. Binding calls can cover weak binding; strength is not graded here."}
{"binder": "B1", "values": [{"measurement": "binding", "result": "binds"}]}
